{
  "source": "patent US20260234268A1",
  "about": "“ANTI-ASGR1 MONOCLONAL ANTIBODY AND USE THEREOF” (CHOLESGEN (SHANGHAI) CO., LTD., priority 2022, published 2026)",
  "tested_on": "mice fed a high-fat, high-cholesterol, and cholate (HF/HC/BS) diet",
  "assay": "4B9 and atorvastatin, alone or combined, in mice fed HF/HC/BS diet, 14 days (Example 2, FIG. 3)",
  "conditions": "4B9 10 mg/kg/day i.p. every other day",
  "data": [
    {"smiles": "CC(C)c1c(C(=O)Nc2ccccc2)c(-c2ccccc2)c(-c2ccc(F)cc2)n1CC[C@@H](O)C[C@@H](O)CC(=O)O", "note": "[atorvastatin]", "values": [
      {"measurement": "total amount of total bile acid in bile", "setting": "atorvastatin 30 mg/kg/day intragastric daily (FIG. 3i)", "result": "almost no effect"},
      {"measurement": "ratio of liver weight to body weight", "setting": "8 groups of mice, atorvastatin 30 mg/kg/day intragastric daily (FIG. 3m)", "result": "No significant differences"}
    ]}
  ]
}
